One experiment addresses T1, 3× FLAG-IKKβ (UniProt O14920).
T1 sequence: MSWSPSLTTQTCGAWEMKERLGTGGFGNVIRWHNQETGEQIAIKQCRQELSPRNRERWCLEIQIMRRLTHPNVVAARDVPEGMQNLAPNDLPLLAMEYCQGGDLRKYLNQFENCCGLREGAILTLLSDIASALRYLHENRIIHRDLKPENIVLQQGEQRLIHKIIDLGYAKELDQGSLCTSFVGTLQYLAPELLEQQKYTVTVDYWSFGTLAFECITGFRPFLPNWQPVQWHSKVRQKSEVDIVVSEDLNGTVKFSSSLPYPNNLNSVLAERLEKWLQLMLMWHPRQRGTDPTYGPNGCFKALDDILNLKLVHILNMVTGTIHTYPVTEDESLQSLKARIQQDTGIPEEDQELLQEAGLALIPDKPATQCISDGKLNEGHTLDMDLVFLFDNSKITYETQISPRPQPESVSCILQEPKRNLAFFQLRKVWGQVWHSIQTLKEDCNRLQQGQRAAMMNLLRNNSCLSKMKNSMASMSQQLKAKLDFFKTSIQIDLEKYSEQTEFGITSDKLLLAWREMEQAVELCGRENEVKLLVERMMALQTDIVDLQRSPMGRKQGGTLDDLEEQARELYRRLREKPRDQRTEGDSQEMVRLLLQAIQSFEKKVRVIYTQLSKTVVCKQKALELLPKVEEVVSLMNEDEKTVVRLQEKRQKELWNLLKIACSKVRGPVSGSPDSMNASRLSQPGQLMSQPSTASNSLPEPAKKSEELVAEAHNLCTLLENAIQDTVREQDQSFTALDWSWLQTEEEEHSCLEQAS
Description: co-IP.

The target of experiment [1] is GST-EHEC NleH1 (enterohemorrhagic Escherichia coli (EHEC)). Kind of experiment: pull-down; both purified.
The target in experiment [2] is GST-EHEC NleH2 (enterohemorrhagic Escherichia coli (EHEC)). Description: pull-down; both purified.

These are yes or no findings as the source states them, for the method shown. Binding calls can cover weak binding; strength is not graded here. Tags and fused reporters may be left off the sequences shown. For some assays here: In cells and extracts the contact can be indirect.

For the molecule NleH1-HA, in the experiment with 3× FLAG-IKKβ, the binding entry was “binds”.
Still for that read-out and setting: the value for NleB1-HA was “no binding”; that for NleH2-HA was “binds”.

B1: His-IKKβ (enzyme, UniProt O14920 1-756)
chain: T1 sequence
Regarding B1, the binding entry in experiment [1] and in experiment [2] was “binds” throughout.

For the origin of these results see paper PMC6313503.
